Assays:
Format in all cases: cell-based
[1] = test system: human bladder cancer cells (RT4); assay: Proliferation inhibition of human bladder cancer cells RT4 (CellTiter-Glo); details: RT-4, 72 h, RT4, 3 days
Procedure: (§1) Example 58: Evaluation of Proliferative Inhibition Activity of Human Gastric Cancer Cells and Bladder Cancer Cells
(§2) Using the CellTiter-Glo<TM>Live Cell Assay Kit, The inhibitory effect of the test compound on the proliferation of human gastric cancer cells (SNU-16) and FGFR3 high expression and FGFR3 fusion of FGFR3-TACC3 fused human bladder cancer cells (RT4) was determined. Among them, RT4 medium is added with fetal bovine serum and McCoy's 5A medium with a final concentration of 10%.
(§3) Test steps: SNU-16 and RT4 cells that have reached 80% cell confluency were digested by trypsin, centrifuged and re-suspended for counting, and 3500 and 6000 cells/mL of SNU-16 and RT4 cell suspensions were prepared with medium, respectively. Add a 96-well cell culture plate (90 μL/well) and place in a cell culture incubator containing 5% CO2 at 37° C. […] Take out the 96-well cell culture plate and add CellTiterGlo (CTG, Chemiluminescent Cell Viability Assay) reagent (100 L/well. Mix and centrifuge, and then incubate for 10 min at room temperature. After gentle shaking, the absorbance at 450 nm wavelength was determined on the SpectraMax M5 Reader, and the absorbance at 650 nm was used as a reference (i.e., 450 nm absorbance −650 nm absorbance) to calculate the suppression.

Hep3B cells = assay: Human hepatoma cell Hep3B survival test (CellTiter-Glo); details: 72 h, read-out: inhibitory activity on Hep3B cell proliferation IC50 (nM)
Procedure: Example 57: Human Hepatoma Cell Hep3B Survival Test
The Hep3B cell line of human liver cancer is derived from ATCC. Cells are supplemented with McCoy's 5A medium and additionally added fetal bovine serum (IOFBS). Cells are kept in the medium at 37° C., humidity at 95%, and carbon dioxide at 500. Hep3B cells were seeded in 96-well plates at a density of 3500 cells per well with a cell suspension volume of 90 μL per well and cultured at 37° C. in a cell culture incubator containing 500 CO2. […] The 9 concentrations are: 1l μM, 2.5 μM, 0.625 μM, 0.156 μM, 0.039 μM, 0.0098 μM, 0.0024 μM, 0.0006 μM and 0.000015 μM, mix and centrifuge, add 1PL compound DMSO solution to the cell culture medium, and use 1M DMSO as a control, with three parallel side wells for each concentration of each compound. The cells were then placed in a 37° C. incubator and treated with compounds for 72 hours.

[2] = test system: human gastric cancer cells (SNU-16); assay: Proliferation inhibition of human gastric cancer cells SNU-16 (CellTiter-Glo); details: 72 h, SNU-16, 3 days
Procedure: as §1, §2, §3

Compound: C=CC(=O)N1CC[C@H](n2nc(C#Cc3cc(OC)cc(OC)c3)c3c(N)ncnc32)C1 [Futibatinib]
- IC50 [1]: 12.6 nM
- IC50 (Hep3B cells): < 10 nM
- IC50 [2]: 0.022 nM
